Assay results published in publication PMC4272302.

Amino acid sequences for entries named in this document (tags omitted). A change or cut given only in a name is not applied to a line headed by its entry.
UniProt Q14BB9: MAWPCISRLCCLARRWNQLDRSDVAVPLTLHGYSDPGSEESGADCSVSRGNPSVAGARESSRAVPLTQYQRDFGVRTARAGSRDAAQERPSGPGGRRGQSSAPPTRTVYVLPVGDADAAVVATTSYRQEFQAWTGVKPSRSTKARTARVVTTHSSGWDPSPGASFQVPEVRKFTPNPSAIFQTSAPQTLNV

Target: MAP6d1-ΔMn3-myc (mouse) (UniProt Q14BB9)
Experiment: co-IP; COS-7 cells co-transfected with a GFP-tagged and a myc-tagged MAP6d1; lysed 15 h after transfection in IP buffer (50 mM Tris, 150 mM NaCl, 0.05% deoxycholate, 1% Triton X-100, 10% glycerol, pH 8.0); IP with anti-myc (Protein G-Sepharose) or anti-GFP (Protein A-Sepharose), 1 h at 4°C, five washes; western blot

Substance: MAP6d1-GFP (from UniProt Q14BB9 1-191)
- binding: no binding

These are yes or no findings as the source states them, for the method shown. Binding seen in cells or lysates may run through a third protein.
